This is one part of the list. These are raw signals, not scaled to a control.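 Primary screen: polymyxin B was added at a level permeabilizing Salmonella outer membranes while sparing inner membranes. DMSO wells, both with and without polymyxin B, established maximum growth. Plate-to-plate variation meant each plate was ranked on its own, and the lowest-OD600 compounds were selected as hits.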
Test system: Salmonella enterica serovar Typhimurium SL1344
Assay: bacterial growth OD600 after 18 h with compound and polymyxin B; higher = more bacterial growth (less inhibition)
Details: 50 µM, Mueller-Hinton broth

Compound | bacterial growth OD600 (polymyxin B 0.75 µg/mL) | bacterial growth OD600 (polymyxin B 1 µg/mL)
CSc1ccc(CN2CCCC(c3[nH]ncc3CC(C)C)C2)cc1 (stereo not drawn) | 0.838 | –
C=CCNC(=O)NC1CC(=O)N(Cc2cccc3ccccc23)C1 (stereo not drawn) | – | 0.863
COc1cc(OC)cc(C(=O)NCC2CCCN(C(=O)CCn3nccc3C)C2)c1 (stereo not drawn) | 0.821 | –
COc1cc(CC(=O)N2CCOc3ccc(CN4CCCCC4CO)cc3C2)cc(OC)c1OC (stereo not drawn) | 0.876 | –
COCCN(C)c1ccc(C(=O)N2CCCC(c3ccccc3)CC2)cn1 (stereo not drawn) | – | 0.805
Cc1ccc2[nH]c(C(=O)N3CCC(CCC(=O)NC4CC4)CC3)c(C)c2c1 | – | 0.811
CC(C)CCNc1ccc(C(=O)N2CCCN(c3ncccn3)CC2)cn1 | 0.757 | –
CC(C)=CC(=O)N1CCCC(Nc2ccc(C)c(C)c2)C1 (stereo not drawn) | – | 0.842
COc1ccccc1CCC(=O)N1CCC2(CC1)CC2C(=O)NCC1(c2ccccc2)CCOCC1 (stereo not drawn) | 0.804 | –
Cc1cc(C(=O)NCC2CCCN(Cc3nc(-c4cccs4)oc3C)C2)no1 (stereo not drawn) | – | 0.966
COc1ccc(/C=C/CN2CCC(CO)(Cc3ccc(OC)cc3)CC2)cc1 | 0.708 | –
COCCn1cc(C(=O)NCC2(c3ccccc3)CCCC2)c(=O)c(C(=O)N2CCCC(C)C2)c1 (stereo not drawn) | 0.325 | –
CC(C)(CNC1CCN(c2ccc(C(=O)NCc3ccc4c(c3)OCO4)cc2)CC1)N1CCOCC1 | 0.815 | –
CCCCC1CN(CCC(=O)NCCc2ccncc2)Cc2ccccc2O1 (stereo not drawn) | 0.761 | –
COc1ccc(CN2CCN(C(C)C)CC2)cc1OCC(O)CN1CCCCCCC1 (stereo not drawn) | 0.775 | –
COCCN1CCN(Cc2cn(-c3ccccc3C)nc2-c2ccc(OC)c(F)c2)CC1 | – | 1.1
CCN1CCC(CC(=O)N2CCCC(CCc3cccc(F)c3)C2)CC1 (stereo not drawn) | 0.674 | –
Cc1ccccc1CCN1CCCC(CN(C)C(=O)CCN2CCCC2=O)C1 (stereo not drawn) | – | 0.819
Cc1c(CC(=O)N2CCNC(=O)C2)c2c(n1Cc1ccccc1F)CCCC2=O | – | 1.16
COc1ccc(F)c(CN2CCCC3(CCN(C(=O)C4CCCC4)C3)C2)c1 (stereo not drawn) | – | 0.912
COCCNC(=O)c1ccc(OC2CCN(CC3CCOC(C)(C)C3)CC2)c(Cl)c1 (stereo not drawn) | – | 0.935
CCc1csc(CNC(=O)c2ccc(N(C)CC)nc2)n1 | – | 0.88
CCCCN(Cc1ccccc1)C(=O)CCC1(Cc2cc(OC)ccc2F)CCC(=O)N1 (stereo not drawn) | 0.633 | –
CC1CN(Cc2cccc(OCCO)c2)Cc2cc(Cl)ccc2O1 (stereo not drawn) | 0.486 | –
CC(C)CN1CC(C(=O)N2CCOc3ccc(CN4CCN(c5ccccc5)CC4)cc3C2)CC1=O (stereo not drawn) | 0.889 | –
CC(C(=O)N1CCc2onc(-c3ccc(-c4ccccc4)cc3)c2C1)n1cncn1 (stereo not drawn) | 0.584 | –
COc1cc(/C=C/CN2CCC(Oc3ccccc3C(=O)N3CCCC3)CC2)ccc1O | 0.776 | –
COCCN1CCN(C(=O)CC2c3ccccc3CCc3ccccc32)CC1 | – | 0.779

Retrieved one by one from the entries so far:
Compound | bacterial growth OD600 (polymyxin B 0.75 µg/mL) | bacterial growth OD600 (polymyxin B 1 µg/mL)
CCCCC1CN(CCC(=O)NCCc2ccncc2)Cc2ccccc2O1 (stereo not drawn) | 0.761 | –
CCCCN(Cc1ccccc1)C(=O)CCC1(Cc2cc(OC)ccc2F)CCC(=O)N1 (stereo not drawn) | 0.633 | –

Reference: the supplement of paper PMC12889115
